Results deposited as PubChem BioAssay AID602196 (INSERM, 2012).
Purpose: 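Modifiers of cisplatin sensitivity in A549 cells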. Cell system: human A549 lung cancer cells. Knock-down reagent: siRNA pair against human genes. Time to read-out: 48 h transfection before cisplatin; time from cisplatin to read-out not stated. Challenge: cisplatin at a dose killing half of control-siRNA cells; exact dose and duration not given. Read-out: 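Cisplatin cell death as a shift from the 50% death seen with control siRNA; siRNAs toxic or growth-blocking alone scored 0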. Scale: two-siRNA summed score (-2 to +2): higher = both siRNAs protect from cisplatin killing; -2 means both sensitise; mean protection from cisplatin (shift in death) and protection from cisplatin (shift in death), siRNA C: higher = protection from cisplatin killing. Hit rule: 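Each siRNA scores 0 if harmful alone by LDH or WST-1, otherwise +1 if it reduces and -1 if it increases cisplatin killing; a gene is active when both siRNAs agree (sum +2 or -2)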. Calls: active = both siRNAs shift cisplatin killing the same way; inactive = no consistent shift, or siRNA harmful alone.
This is an unselected part of about 23,000 deposited reagents. 455 of all reagents (2%) were called active. 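Active includes both protection and sensitisation; some change values fall well beyond the stated -50 to +50 range.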 Not all columns of the deposit are shown. Reagent sequences are not shown. The record does not give: the amount of reagent.

| target gene | two-siRNA summed score (-2 to +2) | mean protection from cisplatin (shift in death) (%) | protection from cisplatin (shift in death), siRNA C (%) | outcome |
| --- | --- | --- | --- | --- |
| DES | 0 | -2.7 | -3.2 | inactive |
| LOC401500 | 0 | 11 | 13.6 | inactive |
| LOC388657 | 0 | 11.5 | 9.9 | inactive |
| KLK12 | 0 | -3.1 | 4 | inactive |
| JAG1 | 0 | -8 | -3.2 | inactive |
| TMEM68 | -1 | -7.6 | -18.3 | inactive |
| BMI1 | -1 | -9 | 0.8 | inactive |
| RUSC1 | 0 | 0.3 | 2.4 | inactive |
| CLEC4G | 1 | 0.9 | 17.7 | inactive |
| SLC5A12 | 0 | -16.1 | -16.3 | inactive |
| LOC343515 | 0 | 9.3 | 1.7 | inactive |
| NUTF2P4 | 0 | 2.8 | 10.2 | inactive |
| GAS7 | 0 | 4.1 | 5.6 | inactive |
| KRT13 | 1 | 8.3 | 19.9 | inactive |
| BMP2K | 1 | 6.8 | 16.5 | inactive |
| PSMD2 | 0 | 18.4 | 4.7 | inactive |
| HACD3 | 0 | -0.4 | -13.1 | inactive |
| DCTN5 | 0 | 14.7 | 11.1 | inactive |
| LOC402633 | 0 | 10.1 | 3.9 | inactive |
| CEP250 | 1 | 10.6 | 17.5 | inactive |
| PTBP2 | 0 | -3.1 | 5.4 | inactive |
| NTN4 | 0 | -5.9 | 3.9 | inactive |
| LOC388406 | 1 | 19.8 | 5.1 | inactive |
| RSBN1L | 0 | 8.4 | 9.1 | inactive |
| NR2F1 | 1 | 15.1 | -3.2 | inactive |
| RHD | 0 | 2 | -0.1 | inactive |
| MAN1C1 | 1 | 5 | -4.7 | inactive |
| USP6NL | 0 | 5 | 8.3 | inactive |
| TRMT5 | 0 | -2.2 | 2.7 | inactive |
| HOXB1 | 0 | -9.5 | -18.3 | inactive |
| DHX8 | 0 | 9.4 | 1.4 | inactive |
| SLITRK4 | 0 | 3.3 | 3.1 | inactive |
| LOC133993 | 0 | 18.3 | 16.9 | inactive |
| POLI | 0 | 3.8 | 1.7 | inactive |
| LOC440253 | 1 | 16.3 | 23.3 | inactive |
| WDR17 | 1 | 12.8 | 13.7 | inactive |
| TCERG1 | 0 | 6.2 | 7.4 | inactive |
| BBS7 | 0 | 17.3 | 23.8 | inactive |
| LOC139735 | 0 | 3.1 | 6.9 | inactive |
| GDPD4 | 1 | 8.8 | 5.7 | inactive |
| PTGS1 | 0 | 16.3 | 3.1 | inactive |
| RIN1 | -1 | -9.6 | 1.6 | inactive |
| TMIGD2 | 0 | 2.9 | 5.1 | inactive |
| LAMTOR2 | 0 | 4.9 | 0.9 | inactive |
| UCKL1 | 0 | 1.2 | 3.8 | inactive |
| MDS010 | 0 | 2.9 | 0.5 | inactive |
| CFAP20 | 0 | 3.5 | 3.7 | inactive |
| RHBDL2 | 0 | -1.4 | 6.7 | inactive |
| GNE | 1 | 15.9 | 23 | inactive |
| PDE11A | 0 | -5.2 | -4 | inactive |
| KCNJ16 | 0 | 4.5 | -5.7 | inactive |
| LOC387765 | 1 | 6.1 | 7.7 | inactive |
| LOC400840 | 1 | 14.8 | 16.4 | inactive |
| GPR31 | 0 | 22.1 | 3.9 | inactive |
| RABGAP1 | 0 | 0.9 | 15.4 | inactive |
| PRSS2 | 0 | 3.9 | -7.5 | inactive |
| LOC389910 | 0 | 9 | 10.9 | inactive |

Copied from the entries so far, 9 entries:
| target gene | two-siRNA summed score (-2 to +2) | mean protection from cisplatin (shift in death) (%) | protection from cisplatin (shift in death), siRNA C (%) | outcome |
| --- | --- | --- | --- | --- |
| RHBDL2 | 0 | -1.4 | 6.7 | inactive |
| GNE | 1 | 15.9 | 23 | inactive |
| PDE11A | 0 | -5.2 | -4 | inactive |
| KCNJ16 | 0 | 4.5 | -5.7 | inactive |
| LOC387765 | 1 | 6.1 | 7.7 | inactive |
| LOC400840 | 1 | 14.8 | 16.4 | inactive |
| GPR31 | 0 | 22.1 | 3.9 | inactive |
| RABGAP1 | 0 | 0.9 | 15.4 | inactive |
| PRSS2 | 0 | 3.9 | -7.5 | inactive |
